Results on 60 molecules are retold here after PubChem BioAssay AID493014 (National Center for Advancing Translational Sciences (NCATS), 2011).

The assay in a line: qHTS Assay to Find Inhibitors of Chronic Active B-Cell Receptor Signaling. As to conditions: ABC-DLBCL IkBa-CBG/CBR reporter, luminescence ratio (green luciferase fused to IkBa over red control in TMD8 lymphoma cells), 4 h. In a few lines:
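TMD8 human ABC-DLBCL cells with doxycycline-inducible IκBα–green luciferase fusion and unfused red luciferase, in 0.5% FBS medium; compounds up to 46 uM, 4 h at 37C. Green/red luminescence ratio, filter-overlap corrected, fitted to concentration-response curves.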
For orientation: qHTS replaces the single test concentration by a dilution series.

Where [1] appears, read: measured here: CBR red luminescence, cell number.
Where [2] appears, read: measured here: IkBa-CBG green luminescence.

Several values for one entry are separate records, joined by “and”; a condition that tells them apart may be missing. Identical values can stand only once. The list shows a part of the results. These are further read-outs of the screen, such as a control signal, another cell line or another target. No call is given for them. Most of these compounds were active or inconclusive in the main read-out, so they are no random draw. The note in brackets gives the kind of curve behind each potency; many fits are weak.

One may read the AC50 as the midpoint of the concentration-response curve, whichever way the signal moves. For the molecule `CS(=O)(=O)Nc1ccc(C(=O)Nc2ccc3c(c2)OCCO3)cc1`, the concentration at half-maximal activity (AC50) under setting [1] is 8.2 µM [falling, partial curve, poor fit]. The same measure, in the same setting: the same measure for `Cc1ccccc1Cn1cnc2c(oc3ccccc32)c1=O`: 15.8 µM [falling, single point]; for `CC(C)=CCC[C@](C)(O[C@@H]1O[C@H](CO[C@@H]2OC[C@@H](O)[C@H](O)[C@H]2O)[C@@H](O)[C@H](O)[C@H]1O)C1CC[C@]2(C)C1[C@H](O)CC1[C@@]3(C)CC[C@H](O[C@@H]4O[C@H](CO)[C@@H](O)[C@H](O)[C@H]4O)C(C)(C)C3CC[C@]12C` (some centres not stated): 16.4 µM [rising, single point]; for `O=C1SC(SCc2ccccc2)=N/C1=C\c1ccc(C(=O)O)cc1`: 12.6 µM [falling, partial curve].

`O=C1C2C3C=CC(C3)C2C(=O)N1CCN1CCN(S(=O)(=O)c2ccc3ccccc3c2)CC1` (configuration not stated): the concentration at half-maximal activity (AC50) under setting [1] is 1.84 µM [rising, partial curve, poor fit]. On the same count and under the same terms, the same measure for `CCOC(=O)c1c(C)nc2c(c1-c1ccc(OC)cc1)C(=O)CC(C)(C)C2`: 25.1 µM [falling, single point]. On the same count and under the same terms, the result for `CSc1ccccc1NC(=O)c1cc(-c2ccc3c(c2)OCO3)on1` reads 0.251 µM [falling, full curve, poor fit]. Still for that read-out and setting: the result for `O=C(COc1ccc([N+](=O)[O-])cc1)NNC(=O)c1cccs1` reads 20 µM [rising, partial curve, poor fit]; that for `CC1(C)CC(=O)C2=C(C1)OC(N)=C(C#N)C2c1ccc(OC(=O)N2CCOCC2)cc1` (configuration not stated), 6.31 µM [falling, single point].

In the case of `COc1ccccc1N1CCN(/N=C/C=C/c2ccccc2[N+](=O)[O-])CC1`, the AC50 under setting [1] is 31.6 µM [falling, single point]. Same read-out and setting: the same measure for `CN(C(=O)c1ccco1)c1nc(-c2ccc(F)cc2)cs1`: 1.41 µM [rising, partial curve, poor fit].

For the molecule `C/C(=N\NC(=O)Cn1nc(C)c([N+](=O)[O-])c1C)c1ccco1`, under setting [1], the AC50 was 10 µM [rising, single point]. On the same count and under the same terms, the same measure for `O=C(CN1C(=O)NC2(CCCC2)C1=O)NNC(=O)c1ccc(Br)cc1`: 2.31 µM [rising, partial curve, poor fit]; for `CC(=O)c1cnc(-c2ccccn2)s1`: 10 µM [rising, partial curve, poor fit]; for `Cc1ccc(O)c(NC(=O)COc2cc(C)ccc2C)c1`: 0.82 µM [rising, full curve, poor fit]. The same measure, in the same setting: the same measure for `CN1CCNC(=O)C1CC(=O)N1CC=C(c2ccc(F)cc2)CC1` (configuration not stated): 35.5 µM [falling, single point]; for `CCCSc1cc(=O)n(-c2ccccc2)nc1C(=O)O`: 8.91 µM [falling, partial curve, poor fit]; for `Cc1ccc(C(=O)N/C(=C\c2cccs2)C(=O)NCC2CCCO2)cc1C` (configuration not stated): 16.4 µM [rising, partial curve, poor fit].

As to `Cc1ccc(C(=O)NNC(=S)NC(=O)c2ccco2)cc1`, the AC50 under setting [1] was 2.51 µM [falling, full curve, poor fit]. The same measure, in the same setting: the same measure for `CCOc1ccc(N2C(=O)CC(N(CCc3ccc(OC)c(OC)c3)C(=S)Nc3ccccc3)C2=O)cc1` (configuration not stated): 14.6 µM [falling, partial curve, poor fit].

For `O=c1[nH]c2cc3c(cc2cc1CN(Cc1cccnc1)Cc1nnnn1Cc1ccco1)OCCO3`, the AC50 under setting [1] was 23.1 µM [falling, partial curve, poor fit]. The same measure, in the same setting: the same measure for `COC(=O)c1sc(NC(C)=O)c(C(=O)OC)c1C`: 4.61 µM [falling, full curve, poor fit]. The same measure, in the same setting: the result for `CCCCSc1nc(CCC)cc(=O)[nH]1` reads 0.517 µM [rising, partial curve, poor fit].

Consider `O=C(CSc1nc(Nc2ccccc2)nc(N2CCOCC2)n1)Nc1cc(Cl)ccc1O`, for which the half-maximal activity concentration (AC50) under setting [1] was 11.2 µM [falling, partial curve]. The same measure, in the same setting: the same measure for `Cc1ccc(C)c(NC(=O)CN(C)S(=O)(=O)c2ccccc2)c1`: 29.1 µM [falling, single point]; for `Cn1nc(-c2ccc(C(=O)Nc3cccnc3)cc2)c2ccccc2c1=O`: 6.51 µM [rising, single point]; for `Fc1cccc(CNc2ncnc3ccc(-c4ccc5c(c4)OCO5)cc23)c1`: 32.6 µM [falling, single point] and 23.1 µM [falling, single point]. For `O=C1c2c(O)ccc(O)c2C(=O)c2c(NCCNCCO)ccc(NCCNCCO)c21`, the concentration at half-maximal activity (AC50) was 23.1 µM [falling, partial curve] under setting [1] and 3.26 µM [rising, partial curve, poor fit] under setting [2]. Consider `COc1ccc(C(=O)C2CCCN(C(=O)c3ccccc3C(C)=O)C2)cc1F` (configuration not stated), for which the half-maximal activity concentration (AC50) under setting [1] was 11.2 µM [falling, partial curve, poor fit]. Turning to `CCOP(=O)(OCC)C(NC(=O)Nc1ccc(Cl)cc1)C(=O)N(CC)CC` (configuration not stated), under setting [1], the AC50 was 2.59 µM [rising, full curve]. Regarding `O=C(Nc1cccc2ncccc12)c1ccc(-c2ccc(Cl)cc2Cl)o1`, the AC50 under setting [1] was 4.47 µM [falling, partial curve]. Still for that read-out and setting: the result for `COc1cc(C)nc(Oc2ccc(/C=N/O)cc2)n1` reads 15.8 µM [rising, single point]. For the molecule `COc1ccc(C2CC(c3ccccc3)=NN2C(=O)COC(=O)c2cccc(S(=O)(=O)N(C)C)c2)cc1` (configuration not stated), under setting [1], the half-maximal activity concentration (AC50) was 29.1 µM [rising, single point]. Turning to `CCOC(=O)C(C)(C)N(Cc1cccc(C)c1)S(=O)(=O)c1cccc([N+](=O)[O-])c1`, the concentration at half-maximal activity (AC50) under setting [2] was 25.9 µM [rising, partial curve, poor fit].

Take `Cc1cc2cc(CNC(=O)Nc3ccccc3)ccc2[nH]1`: the half-maximal activity concentration (AC50) under setting [1] is 6.31 µM [rising, full curve]. On the same count and under the same terms, the result for `O=C(COc1ccccc1C(=O)c1cnn(-c2ccccc2)c1)Nc1ccc2ccccc2c1` reads 1.84 µM [rising, partial curve, poor fit]; that for `CCCCn1c(=O)[nH]c(=O)c2c1nc(-c1ccc(OCC)cc1)n2CC`, 2.82 µM [rising, single point]. With `COc1ccc(OC)c(/C=C/c2c([N+](=O)[O-])c(=O)n(C)c(=O)n2C)c1`, the AC50 under setting [1] was 17.8 µM [falling, partial curve, poor fit].

Regarding `c1coc(CNc2nc3nonc3nc2NCc2ccco2)c1`, under setting [1], the AC50 was 23.1 µM [falling, single point]. For the molecule `O=C(CNC(=O)c1ccco1)Nc1cccc(Cl)c1`, the AC50 under setting [1] is 3.16 µM [rising, full curve, poor fit].

Consider `CCOC(=O)c1nnn(-c2nonc2N)c1COc1cc(C)c(Cl)c(C)c1`, for which, under setting [1], the AC50 is 0.231 µM [falling, full curve, poor fit]. Still for that read-out and setting: the same measure for `CCC(=O)Nc1ccc(Cl)c(NC(=S)NC(=O)c2cc3ccccc3o2)c1`: 1.64 µM [rising, partial curve]; for `COCCCC1CCN(C(=O)C2CCC(=O)N(CCc3ccccc3)C2)CC1` (configuration not stated): 0.891 µM [rising, full curve]; for `CN1CCC(=NNC(=O)CN(c2cccc([N+](=O)[O-])c2)S(=O)(=O)c2ccccc2)CC1`: 35.5 µM [falling, single point].

For `NC(=O)c1nsc(C(=O)N(c2ccccc2)C(C(=O)NC2CCCC2)c2ccncc2)c1N` (configuration not stated), under setting [1], the AC50 was 3.55 µM [rising, single point].

`CCN(CC)S(=O)(=O)c1ccc2c(c1)c(=O)c(C(=O)NCCc1ccc(OC)c(OC)c1)cn2C`: the AC50 is 11.2 µM [rising, partial curve, poor fit] under setting [1] and 5.62 µM [falling, partial curve] under setting [2].

Turning to `O=C(Nc1cnc2ccccn2c1=O)c1ccc(F)cc1`, the AC50 under setting [1] is 16.4 µM [falling, partial curve]. In the case of `COc1ccc(-n2nc3c(c2NC(=O)c2ccc(N4C(=O)CCC4=O)cc2)CSC3)cc1`, the half-maximal activity concentration (AC50) under setting [1] is 20 µM [rising, single point]. In the case of `COc1cccc(C2CC(C(F)(F)F)n3ncc(C(=O)Nc4c(C)n(C)n(-c5ccccc5)c4=O)c3N2)c1` (configuration not stated), the AC50 under setting [1] is 14.6 µM [falling, single point].

As for `CCC(=O)N1CCN(c2ccccc2NC(=O)COc2ccc(C(C)C)cc2)CC1`, the AC50 under setting [1] is 25.1 µM [falling, single point]. Still for that read-out and setting: the result for `COC(=O)/C(=C\Nc1ccccc1)NC(=O)c1ccc(Cl)cc1Cl` reads 25.9 µM [rising, single point]. The same measure, in the same setting: the same measure for `Cc1ccc(C)c(C(=O)C(C)OC(=O)c2cccn2C)c1` (configuration not stated): 8.91 µM [rising, partial curve, poor fit]. Still for that read-out and setting: the result for `Cc1ccc(O)c(N=CC2=C(O)c3ccccc3C2=O)c1` reads 17.8 µM [falling, single point]; that for `CC(C)(C)c1ccc(OCc2cnc(Cl)s2)cc1`, 28.2 µM [rising, partial curve, poor fit]; that for `Cc1ccccc1C(=O)NC(=S)NCC1CCCO1` (configuration not stated), 3.55 µM [falling, single point]. As to `CCOc1ccc(C(O)Cn2c(=N)n(CCN3CCCCC3)c3ccccc32)cc1` (configuration not stated), under setting [1], the concentration at half-maximal activity (AC50) is 29.1 µM [falling, partial curve, poor fit].

`COc1cccc(/C=N/NC(=O)c2ccoc2C)c1O`: the AC50 under setting [1] is 5.62 µM [falling, partial curve]. Turning to `COc1cccc(-c2nnc(NC(=O)c3ccccc3Br)o2)c1`, the AC50 under setting [1] was 8.91 µM [falling, partial curve].

Turning to `COCC(=O)N1CCCC(CNS(=O)(=O)c2ccc(OC)cc2)C1` (configuration not stated), the concentration at half-maximal activity (AC50) under setting [1] was 8.91 µM [rising, partial curve, poor fit]. On the same count and under the same terms, the same measure for `COc1cc(C(=O)NCc2cn3cccc(C)c3n2)cc(OC)c1OC`: 0.651 µM [rising, partial curve, poor fit].
